According to publication PMC11884132:
These are yes or no findings as the source states them, for the method shown. Binding seen in cells or lysates may run through a third protein. Some results given as binding are weak or reduced against the parent protein; the word gives no strength. For part of these data: Sequences can lack the tags named with a protein. Blank lines part the entries; values can stand above or below the molecule they belong to.

Amino acid sequences for entries named in this document (tags omitted).
UniProt Q12834: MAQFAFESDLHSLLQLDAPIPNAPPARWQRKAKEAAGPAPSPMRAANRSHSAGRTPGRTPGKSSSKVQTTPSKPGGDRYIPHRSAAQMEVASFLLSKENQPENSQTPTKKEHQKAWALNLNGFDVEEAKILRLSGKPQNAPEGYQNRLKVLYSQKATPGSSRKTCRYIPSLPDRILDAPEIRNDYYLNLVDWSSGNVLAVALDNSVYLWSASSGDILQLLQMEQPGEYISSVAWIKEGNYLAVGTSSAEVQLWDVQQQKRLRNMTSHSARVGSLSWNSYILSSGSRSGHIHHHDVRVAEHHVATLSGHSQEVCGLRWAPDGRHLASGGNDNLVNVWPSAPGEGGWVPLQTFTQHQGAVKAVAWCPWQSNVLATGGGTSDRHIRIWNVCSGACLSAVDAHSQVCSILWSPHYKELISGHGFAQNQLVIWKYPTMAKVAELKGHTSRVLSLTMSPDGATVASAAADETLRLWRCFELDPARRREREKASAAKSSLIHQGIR

What was measured:
Myc-CCDC69 = target: T1, Myc-CCDC69 (UniProt A6NI79); assay: co-IP; 293 T cells co-transfected with Flag-CDC20 and MYC-CCDC69; lysates incubated overnight at 4 °C with anti-Flag or anti-MYC antibody; eluted with 1 × SDS buffer; western blot
T1 sequence: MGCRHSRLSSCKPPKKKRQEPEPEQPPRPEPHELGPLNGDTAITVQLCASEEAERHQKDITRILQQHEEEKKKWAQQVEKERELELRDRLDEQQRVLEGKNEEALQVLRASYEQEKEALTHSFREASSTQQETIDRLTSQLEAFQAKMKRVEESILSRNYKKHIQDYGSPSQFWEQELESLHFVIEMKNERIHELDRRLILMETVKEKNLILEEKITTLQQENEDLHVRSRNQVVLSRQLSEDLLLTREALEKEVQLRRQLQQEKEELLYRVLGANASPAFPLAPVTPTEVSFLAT

[1] = target: CDC20 (in 293 T cells, precipitated by the anti-CDC20 antibody) (human (endogenous in 293 T)) (UniProt Q12834); assay: co-IP; 293 T cells; immunoprecipitation with anti-CDC20 antibody, IgG control; western blot for CDC20 and CCDC69
Flag-CDC20 (1–499) = Flag-CDC20 (1–499) (UniProt Q12834); assay: co-IP; 293 T cells co-transfected with Flag-CDC20 and MYC-CCDC69; lysates incubated overnight at 4 °C with anti-Flag or anti-MYC antibody; eluted with 1 × SDS buffer; western blot

binding (Myc-CCDC69): binds
Molecule: Flag-CDC20 (1–499) (from UniProt Q12834 1-499)

binding [1]: binds
B1: CCDC69 (in 293 T cells) (protein, UniProt A6NI79 1-296)
chain: T1 sequence

binding (Flag-CDC20 (1–499)): binds
B2: Myc-CCDC69 (protein, UniProt A6NI79 1-296)
chain: T1 sequence
